{"source": "PubChem BioAssay AID328", "about": "(DTP/NCI, 2004)", "test_system": "BDF1 mice, P388 leukemia ip, median survival T/C", "test": "NCI In Vivo Anticancer Drug Screen. Data for tumor model P388 Leukemia (intraperitoneal) in B6D2F1 (BDF1) mice", "conditions": "T/C endpoint: median survival time, higher T/C = longer survival", "experimental": "The antitumor activity of compounds was measured in mice bearing transplantable tumors. Survival or tumor size were measured and the results are expressed as the measurement made in the treated group (T) divided by the measurement made in the vehicle treated control group (C). The tumor model used in this assay is P388 Leukemia (intraperitoneal) in B6D2F1 (BDF1) mice", "key": {"[1]": {"conditions": "dose: 2.0 mg/kg/injection, schedule: Q01DX009 (ip), vehicle: saline"}, "[2]": {"conditions": "dose: 4.0 mg/kg/injection, schedule: Q01DX009 (ip), vehicle: saline"}, "[3]": {"conditions": "dose: 4.0 mg/kg/injection, schedule: Q04DX003 (ip), vehicle: saline"}, "[4]": {"conditions": "dose: 6.0 mg/kg/injection, schedule: Q01DX009 (ip), vehicle: saline"}, "[5]": {"conditions": "dose: 6.25 mg/kg/injection, schedule: Q04DX003 (ip), vehicle: saline"}, "[6]": {"conditions": "dose: 25.0 mg/kg/injection, schedule: Q04DX003 (ip), vehicle: saline"}, "[7]": {"conditions": "dose: 25.0 mg/kg/injection, schedule: Q01DX009 (ip), vehicle: saline"}, "[8]": {"conditions": "dose: 50.0 mg/kg/injection, schedule: Q01DX009 (ip), vehicle: saline"}, "[9]": {"conditions": "dose: 100.0 mg/kg/injection, schedule: Q04DX003 (ip), vehicle: saline"}, "[10]": {"conditions": "dose: 1.0 mg/kg/injection, schedule: Q04DX003 (ip), vehicle: saline"}, "[11]": {"conditions": "dose: 2.0 mg/kg/injection, schedule: Q04DX003 (ip), vehicle: saline"}, "[12]": {"conditions": "dose: 8.0 mg/kg/injection, schedule: Q04DX003 (ip), vehicle: saline"}}, "note": "The list does not hold the whole screen: its compounds were picked by chemical class. Not every dose and run of a compound is shown. T/C gives the treated animals as a percentage of the vehicle group. For survival time, this PubChem deposit counts one and a half times the control or more as active, and values a quarter to a half above the control carry no call in these data; other NCI protocols may use other cut-offs. Some entries show no survivor count and are marked so; the dose need not have been tolerated. Schedules are NCI's codes, read here as Q, the interval in days (D) or hours (H), X, the number of doses. Some doses were run more than once; the results are listed from low to high.", "data": [{"smiles": "Cc1ccc(C)c(CN(CCCl)CCCl)c1", "values": [{"measurement": "T/C", "setting": "dose: 0.88 mg/kg/injection, schedule: Q01DX009 (ip), vehicle: saline", "result": "124 % of control [survivor count not shown]"}, {"measurement": "T/C", "setting": "dose: 1.33 mg/kg/injection, schedule: Q01DX009 (ip), vehicle: saline", "result": "133 % of control [survivor count not shown]"}, {"measurement": "T/C", "setting": "[1]", "result": "156 % of control [survivor count not shown]"}, {"measurement": "T/C", "setting": "dose: 2.6 mg/kg/injection, schedule: Q04DX003 (ip), vehicle: saline", "result": "122 % of control [survivor count not shown]"}, {"measurement": "T/C", "setting": "dose: 2.66 mg/kg/injection, schedule: Q01DX009 (ip), vehicle: saline", "result": "171 % of control [survivor count not shown]"}, {"measurement": "T/C", "setting": "dose: 3.0 mg/kg/injection, schedule: Q01DX009 (ip), vehicle: saline", "result": "168 % of control [survivor count not shown]"}, {"measurement": "T/C", "setting": "[2]", "result": "161 % of control [survivor count not shown]"}, {"measurement": "T/C", "setting": "[3]", "result": "127 % of control [survivor count not shown]"}, {"measurement": "T/C", "setting": "[4]", "result": "178 % of control [survivor count not shown]"}, {"measurement": "T/C", "setting": "dose: 6.0 mg/kg/injection, schedule: Q04DX003 (ip), vehicle: saline", "result": "131 % of control [survivor count not shown]"}, {"measurement": "T/C", "setting": "[5]", "result": "136 % of control [survivor count not shown]"}, {"measurement": "T/C", "setting": "dose: 9.0 mg/kg/injection, schedule: Q01DX009 (ip), vehicle: saline", "result": "196 % of control [survivor count not shown]"}, {"measurement": "T/C", "setting": "dose: 9.0 mg/kg/injection, schedule: Q04DX003 (ip), vehicle: saline", "result": "131 % of control [survivor count not shown]"}, {"measurement": "T/C", "setting": "dose: 12.5 mg/kg/injection, schedule: Q04DX003 (ip), vehicle: saline", "result": "154 % of control [survivor count not shown]"}, {"measurement": "T/C", "setting": "[6]", "result": "163 % of control [survivor count not shown]"}]}, {"smiles": "ClCCNCCCCNCCCl", "values": [{"measurement": "T/C", "setting": "dose: 18.7 mg/kg/injection, schedule: Q01DX009 (ip), vehicle: saline", "result": "168 % of control [survivor count not shown]"}, {"measurement": "T/C", "setting": "[7]", "result": "190 % of control [survivor count not shown]"}, {"measurement": "T/C", "setting": "dose: 37.5 mg/kg/injection, schedule: Q01DX009 (ip), vehicle: saline", "result": "204 % of control [survivor count not shown]"}, {"measurement": "T/C", "setting": "dose: 44.0 mg/kg/injection, schedule: Q04DX003 (ip), vehicle: saline", "result": "204 % of control [survivor count not shown]"}, {"measurement": "T/C", "setting": "[8]", "result": "209 % of control [survivor count not shown]"}, {"measurement": "T/C", "setting": "dose: 66.0 mg/kg/injection, schedule: Q04DX003 (ip), vehicle: saline", "result": "221 % of control [survivor count not shown]"}, {"measurement": "T/C", "setting": "[9]", "result": "147 [survivor count not shown] and 173 % of control [survivor count not shown]"}, {"measurement": "T/C", "setting": "dose: 150.0 mg/kg/injection, schedule: Q04DX003 (ip), vehicle: saline", "result": "121 % of control [survivor count not shown]"}, {"measurement": "T/C", "setting": "dose: 200.0 mg/kg/injection, schedule: Q04DX003 (ip), vehicle: saline", "result": "100 % of control [survivor count not shown]"}]}, {"smiles": "C#CCN(CCCl)CCCl", "values": [{"measurement": "T/C", "setting": "[10]", "result": "113 % of control [survivor count not shown]"}, {"measurement": "T/C", "setting": "[11]", "result": "145 % of control [survivor count not shown]"}, {"measurement": "T/C", "setting": "dose: 2.3 mg/kg/injection, schedule: Q04DX003 (ip), vehicle: saline", "result": "129 % of control [survivor count not shown]"}, {"measurement": "T/C", "setting": "dose: 2.6 mg/kg/injection, schedule: Q01DX009 (ip), vehicle: saline", "result": "177 % of control [survivor count not shown]"}, {"measurement": "T/C", "setting": "dose: 3.5 mg/kg/injection, schedule: Q04DX003 (ip), vehicle: saline", "result": "125 % of control [survivor count not shown]"}, {"measurement": "T/C", "setting": "[2]", "result": "204 % of control [survivor count not shown]"}, {"measurement": "T/C", "setting": "[3]", "result": "195 % of control [survivor count not shown]"}, {"measurement": "T/C", "setting": "dose: 5.3 mg/kg/injection, schedule: Q04DX003 (ip), vehicle: saline", "result": "158 [survivor count not shown], 168 [survivor count not shown], 179 % of control [survivor count not shown]"}, {"measurement": "T/C", "setting": "[4]", "result": "272 % of control [survivor count not shown]"}, {"measurement": "T/C", "setting": "[12]", "result": "127 [survivor count not shown], 141 [survivor count not shown], 184 % of control [survivor count not shown]"}, {"measurement": "T/C", "setting": "dose: 12.0 mg/kg/injection, schedule: Q04DX003 (ip), vehicle: saline", "result": "200 [survivor count not shown] and 216 % of control [survivor count not shown]"}]}, {"smiles": "COCc1c(CN(CCCl)CCCl)cnc(C)c1O", "values": [{"measurement": "T/C", "setting": "dose: 0.29 mg/kg/injection, schedule: Q04DX003 (ip), vehicle: saline", "result": "104 % of control [survivor count not shown]"}, {"measurement": "T/C", "setting": "dose: 0.44 mg/kg/injection, schedule: Q04DX003 (ip), vehicle: saline", "result": "112 % of control [survivor count not shown]"}, {"measurement": "T/C", "setting": "dose: 1.56 mg/kg/injection, schedule: Q04DX003 (ip), vehicle: saline", "result": "140 % of control [survivor count not shown]"}, {"measurement": "T/C", "setting": "[1]", "result": "154 % of control [survivor count not shown]"}, {"measurement": "T/C", "setting": "dose: 3.12 mg/kg/injection, schedule: Q01DX009 (ip), vehicle: saline", "result": "186 [survivor count not shown] and 300 % of control [survivor count not shown]"}, {"measurement": "T/C", "setting": "dose: 3.12 mg/kg/injection, schedule: Q04DX003 (ip), vehicle: saline", "result": "154 % of control [survivor count not shown]"}, {"measurement": "T/C", "setting": "dose: 4.5 mg/kg/injection, schedule: Q01DX009 (ip), vehicle: saline", "result": "231 % of control [survivor count not shown]"}, {"measurement": "T/C", "setting": "dose: 6.25 mg/kg/injection, schedule: Q01DX009 (ip), vehicle: saline", "result": "100 % of control [survivor count not shown]"}, {"measurement": "T/C", "setting": "[5]", "result": "222 % of control [survivor count not shown]"}]}, {"smiles": "ClCCCC(Cl)CNCCCl", "note": "(stereo unspecified)", "values": [{"measurement": "T/C", "setting": "dose: 1.0 mg/kg/injection, schedule: Q01DX009 (ip), vehicle: saline", "result": "95 % of control [survivor count not shown]"}, {"measurement": "T/C", "setting": "[10]", "result": "108 % of control [survivor count not shown]"}, {"measurement": "T/C", "setting": "[1]", "result": "119 % of control [survivor count not shown]"}, {"measurement": "T/C", "setting": "[11]", "result": "108 % of control [survivor count not shown]"}, {"measurement": "T/C", "setting": "dose: 2.5 mg/kg/injection, schedule: Q01DX009 (ip), vehicle: saline", "result": "120 % of control [survivor count not shown]"}, {"measurement": "T/C", "setting": "[2]", "result": "109 % of control [survivor count not shown]"}, {"measurement": "T/C", "setting": "[3]", "result": "100 % of control [survivor count not shown]"}, {"measurement": "T/C", "setting": "dose: 5.0 mg/kg/injection, schedule: Q01DX009 (ip), vehicle: saline", "result": "120 % of control [survivor count not shown]"}, {"measurement": "T/C", "setting": "dose: 8.0 mg/kg/injection, schedule: Q01DX009 (ip), vehicle: saline", "result": "142 % of control [survivor count not shown]"}, {"measurement": "T/C", "setting": "[12]", "result": "100 % of control [survivor count not shown]"}, {"measurement": "T/C", "setting": "dose: 16.5 mg/kg/injection, schedule: Q04DX003 (ip), vehicle: saline", "result": "113 % of control [survivor count not shown]"}, {"measurement": "T/C", "setting": "[6]", "result": "95 % of control [survivor count not shown]"}, {"measurement": "T/C", "setting": "dose: 37.5 mg/kg/injection, schedule: Q04DX003 (ip), vehicle: saline", "result": "159 % of control [survivor count not shown]"}]}, {"smiles": "ClCCCCC(CCl)NCCCl", "note": "(stereo unspecified)", "values": [{"measurement": "T/C", "setting": "dose: 1.3 mg/kg/injection, schedule: Q01DX009 (ip), vehicle: saline", "result": "87 % of control [survivor count not shown]"}, {"measurement": "T/C", "setting": "dose: 1.9 mg/kg/injection, schedule: Q01DX009 (ip), vehicle: saline", "result": "100 % of control [survivor count not shown]"}, {"measurement": "T/C", "setting": "dose: 3.0 mg/kg/injection, schedule: Q01DX009 (ip), vehicle: Klucel (hydroxypropylcellulose) (HPC)", "result": "131 % of control [survivor count not shown]"}, {"measurement": "T/C", "setting": "dose: 4.6 mg/kg/injection, schedule: Q01DX009 (ip), vehicle: Klucel (hydroxypropylcellulose) (HPC)", "result": "122 % of control [survivor count not shown]"}, {"measurement": "T/C", "setting": "dose: 16.0 mg/kg/injection, schedule: Q01DX009 (ip), vehicle: saline", "result": "159 % of control [survivor count not shown]"}, {"measurement": "T/C", "setting": "[7]", "result": "142 [survivor count not shown] and 195 % of control [survivor count not shown]"}, {"measurement": "T/C", "setting": "dose: 35.0 mg/kg/injection, schedule: Q01DX009 (ip), vehicle: saline", "result": "122 % of control [survivor count not shown]"}, {"measurement": "T/C", "setting": "[8]", "result": "95 % of control [survivor count not shown]"}, {"measurement": "T/C", "setting": "[9]", "result": "90 % of control [survivor count not shown]"}]}]}
